{
  "sequences": {"note": "The chains behind the UniProt entries cited, without tags or fusion partners. Where a name states a change or a piece, a line headed by the entry shows the natural chain unless it says otherwise.", "UniProt P17301": "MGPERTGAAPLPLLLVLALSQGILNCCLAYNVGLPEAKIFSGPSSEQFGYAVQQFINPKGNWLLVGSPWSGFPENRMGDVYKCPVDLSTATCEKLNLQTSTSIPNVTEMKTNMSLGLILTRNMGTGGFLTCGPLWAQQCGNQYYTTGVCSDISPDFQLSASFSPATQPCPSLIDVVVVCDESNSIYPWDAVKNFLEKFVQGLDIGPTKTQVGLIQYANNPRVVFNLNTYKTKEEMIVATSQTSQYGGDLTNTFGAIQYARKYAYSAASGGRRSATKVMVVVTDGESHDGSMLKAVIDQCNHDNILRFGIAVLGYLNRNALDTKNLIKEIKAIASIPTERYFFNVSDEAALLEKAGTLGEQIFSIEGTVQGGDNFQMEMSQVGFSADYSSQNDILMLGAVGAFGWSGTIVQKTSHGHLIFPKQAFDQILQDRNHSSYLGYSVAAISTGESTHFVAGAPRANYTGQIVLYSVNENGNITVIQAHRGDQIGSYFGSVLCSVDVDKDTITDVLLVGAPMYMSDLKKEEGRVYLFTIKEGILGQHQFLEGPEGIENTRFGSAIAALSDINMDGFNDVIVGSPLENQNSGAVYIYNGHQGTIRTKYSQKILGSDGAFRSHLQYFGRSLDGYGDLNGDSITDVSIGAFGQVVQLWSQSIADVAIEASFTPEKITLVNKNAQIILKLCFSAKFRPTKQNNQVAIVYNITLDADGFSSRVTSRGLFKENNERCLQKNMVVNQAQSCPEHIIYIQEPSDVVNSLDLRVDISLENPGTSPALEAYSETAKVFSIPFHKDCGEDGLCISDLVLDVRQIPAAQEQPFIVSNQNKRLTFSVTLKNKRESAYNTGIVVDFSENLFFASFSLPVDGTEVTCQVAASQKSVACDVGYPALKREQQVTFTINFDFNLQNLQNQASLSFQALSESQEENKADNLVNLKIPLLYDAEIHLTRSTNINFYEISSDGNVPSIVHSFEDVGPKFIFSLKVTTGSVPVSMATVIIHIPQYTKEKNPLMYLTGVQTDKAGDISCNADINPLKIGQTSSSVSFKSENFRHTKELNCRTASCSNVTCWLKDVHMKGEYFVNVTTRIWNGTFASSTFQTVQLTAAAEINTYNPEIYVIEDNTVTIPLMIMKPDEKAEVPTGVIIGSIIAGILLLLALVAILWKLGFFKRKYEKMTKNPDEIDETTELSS"},
  "source": "patent US20210079099A1",
  "about": "(VESTLANDETS INNOVASJONSSELSKAP, published 2021)",
  "binders": {"B1": {"name": "monoclonal mouse antibody 203 E1H5 produced by the hybridoma deposited as DSM ACC3318 (antibody, V domains shown)", "VH": "QVQLKESGPGLVAPSQSLSITCTVSGFSLTNYAVHWVRQSPGKGLEWLGVIWSYGSTDYNAAFISKLSISKDNSKSQVFFTMSSLQADDTAIYYCARSQIYGGFYDFFDFWGQGTTLTVSS", "VL": "CDIQMTQTPSSLSASLGDRVTIICRASQDISNFLNWFQQKPDGTIKLLIYYSSRLHSGVPSRFSGSGSGTDYSLTISNLEQEDLATYFCQQGNTLPLTFGAGTKLELT", "notes": "Mouse anti-human alpha-11 IgG from a hybridoma (NT-HRM mice); used as hybridoma supernatant or mAb; also called 203E1H5 mAb; α11 203E1H5 mAb"}, "B2": {"name": "monoclonal mouse antibody 234 H11E8 produced by the hybridoma deposited as DSM ACC3319 (antibody, V domains shown)", "VH": "QVQLKESGPGLVAPSQSLSITCTVSGFSLTNSAVHWVRQSPGKGLEWLGVVWSYGSTDYNAAFISRLSITKDNSKSQVFFKMNSLQADDTAIYYCARSQIYADYYDYFDYWGQGTTLTVSS", "VL": "DIQMTQSTSSLSASLGDRVTISCRASQDISNFLNWSQQKPDGTVKLLIYYTSRLHSGVPSRFSGSGSGTDYSLTISNLEQEDIGTYFCQQGNTLPLTFGAGTKLELR", "notes": "Mouse anti-human alpha-11 IgG from a hybridoma (NT-HRM mice); used as hybridoma supernatant or mAb; constant regions are not; also called 234H11E8 mAb; α11 234H11E8 mAb"}},
  "key": {"[1]": {"biological_target": "T1, human integrin α11-EGFP expressed on C2C12 mouse myoblast cells (human) (UniProt Q9UKX5)", "T1 sequence (looked up)": "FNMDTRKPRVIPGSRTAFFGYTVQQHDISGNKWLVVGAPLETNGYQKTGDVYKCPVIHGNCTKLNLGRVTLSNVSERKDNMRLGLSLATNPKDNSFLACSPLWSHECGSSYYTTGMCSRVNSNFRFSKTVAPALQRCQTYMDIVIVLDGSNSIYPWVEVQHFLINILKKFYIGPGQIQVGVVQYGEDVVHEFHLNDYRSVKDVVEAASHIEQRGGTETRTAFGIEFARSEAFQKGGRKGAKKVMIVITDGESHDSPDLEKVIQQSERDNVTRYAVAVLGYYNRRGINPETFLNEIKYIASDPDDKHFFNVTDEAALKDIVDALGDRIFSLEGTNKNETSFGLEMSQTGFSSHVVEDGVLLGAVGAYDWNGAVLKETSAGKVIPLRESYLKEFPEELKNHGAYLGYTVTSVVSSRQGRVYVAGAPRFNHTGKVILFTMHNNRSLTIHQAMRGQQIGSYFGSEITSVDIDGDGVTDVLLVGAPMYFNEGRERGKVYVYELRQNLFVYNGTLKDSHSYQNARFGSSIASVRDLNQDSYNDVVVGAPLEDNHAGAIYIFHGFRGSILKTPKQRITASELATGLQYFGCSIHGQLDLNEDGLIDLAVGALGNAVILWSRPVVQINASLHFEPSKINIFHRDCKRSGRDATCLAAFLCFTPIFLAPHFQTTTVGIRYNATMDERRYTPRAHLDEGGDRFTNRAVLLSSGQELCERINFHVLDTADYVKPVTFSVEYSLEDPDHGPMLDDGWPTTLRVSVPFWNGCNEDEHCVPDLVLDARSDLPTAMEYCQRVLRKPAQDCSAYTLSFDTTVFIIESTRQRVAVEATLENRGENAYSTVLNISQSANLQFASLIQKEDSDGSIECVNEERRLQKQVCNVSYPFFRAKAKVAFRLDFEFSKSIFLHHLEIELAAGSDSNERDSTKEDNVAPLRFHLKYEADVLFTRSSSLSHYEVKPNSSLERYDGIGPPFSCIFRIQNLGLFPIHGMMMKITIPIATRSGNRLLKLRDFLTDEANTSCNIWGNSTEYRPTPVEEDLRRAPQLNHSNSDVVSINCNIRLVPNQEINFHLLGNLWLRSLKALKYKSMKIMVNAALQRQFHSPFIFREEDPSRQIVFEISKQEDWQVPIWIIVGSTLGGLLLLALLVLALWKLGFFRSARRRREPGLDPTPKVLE", "assay": "Western blot on C2C12-hu α11-EGFP lysate"}, "[2]": {"biological_target": "T2, chimeric human integrin alpha-11 with its I-domain replaced by the human alpha-2 I-domain, EGFP fusion, on C2C12 cells (human) (UniProt Q9UKX5+P17301)", "T2 sequence (looked up)": "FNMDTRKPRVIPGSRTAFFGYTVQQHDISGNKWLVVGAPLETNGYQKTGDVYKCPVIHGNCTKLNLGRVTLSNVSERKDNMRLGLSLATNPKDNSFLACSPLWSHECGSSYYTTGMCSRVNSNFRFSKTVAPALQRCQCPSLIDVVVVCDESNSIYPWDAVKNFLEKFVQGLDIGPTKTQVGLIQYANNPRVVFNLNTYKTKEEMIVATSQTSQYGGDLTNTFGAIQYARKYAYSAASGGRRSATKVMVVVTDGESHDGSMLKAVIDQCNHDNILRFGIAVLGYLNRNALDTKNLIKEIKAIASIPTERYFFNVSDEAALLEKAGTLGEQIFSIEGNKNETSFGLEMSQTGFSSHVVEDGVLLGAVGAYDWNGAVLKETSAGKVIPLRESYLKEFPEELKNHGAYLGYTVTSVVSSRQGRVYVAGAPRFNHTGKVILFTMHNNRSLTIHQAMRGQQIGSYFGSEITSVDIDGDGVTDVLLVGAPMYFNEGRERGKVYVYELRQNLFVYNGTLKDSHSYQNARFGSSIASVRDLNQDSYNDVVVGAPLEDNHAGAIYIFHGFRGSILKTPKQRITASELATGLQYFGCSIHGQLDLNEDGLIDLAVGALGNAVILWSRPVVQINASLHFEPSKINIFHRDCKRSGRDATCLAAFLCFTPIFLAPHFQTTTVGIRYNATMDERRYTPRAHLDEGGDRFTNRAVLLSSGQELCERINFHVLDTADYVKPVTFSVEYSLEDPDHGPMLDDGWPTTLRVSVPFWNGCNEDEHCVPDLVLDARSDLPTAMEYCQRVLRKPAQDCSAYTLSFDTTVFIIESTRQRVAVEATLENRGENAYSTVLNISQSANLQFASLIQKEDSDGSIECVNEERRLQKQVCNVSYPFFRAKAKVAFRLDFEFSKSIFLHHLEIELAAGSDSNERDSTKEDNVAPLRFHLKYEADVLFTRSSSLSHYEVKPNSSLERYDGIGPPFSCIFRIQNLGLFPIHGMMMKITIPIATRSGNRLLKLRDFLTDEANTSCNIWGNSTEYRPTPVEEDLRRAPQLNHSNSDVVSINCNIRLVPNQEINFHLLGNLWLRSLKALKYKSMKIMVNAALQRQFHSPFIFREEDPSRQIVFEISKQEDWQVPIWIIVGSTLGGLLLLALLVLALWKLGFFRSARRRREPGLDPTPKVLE", "assay": "flow cytometry on fixed transfected C2C12 cells"}, "[3]": {"biological_target": "T1, human integrin α11-EGFP expressed on C2C12 mouse myoblast cells (human)", "assay": "flow cytometry on fixed transfected C2C12 cells"}},
  "note": "These are yes or no findings as the source states them, for the method shown. Some binding calls cover weakened binding; strength is not graded here. Tags and fused reporters may be left off the sequences shown.",
  "data": [
    {"binder": "B1", "values": [
      {"measurement": "binding", "setting": "[1]", "value": "binds"},
      {"measurement": "binding", "setting": "[2]", "value": "binds"},
      {"measurement": "binding", "setting": "[3]", "value": "binds"}
    ]},
    {"binder": "B2", "values": [
      {"measurement": "binding", "setting": "[2]", "value": "binds"}
    ]}
  ]
}
